Source: patent US20210290602A1
No constants are given. Whether binding was seen depends on the method and setting. Binding seen in cells or lysates may run through a third protein. Some binding calls cover weakened binding; strength is not graded here.

Protein sequences, listed by entry. Tags and fused reporters are not part of them.
UniProt P60880: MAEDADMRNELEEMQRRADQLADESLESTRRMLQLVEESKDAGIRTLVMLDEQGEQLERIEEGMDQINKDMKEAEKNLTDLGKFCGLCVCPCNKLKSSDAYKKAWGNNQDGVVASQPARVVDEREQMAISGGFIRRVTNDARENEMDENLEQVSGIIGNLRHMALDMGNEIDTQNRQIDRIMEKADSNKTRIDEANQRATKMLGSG

Molecular target: SNAP-25 (endogenous, human induced neurons) (human) (UniProt P60880)
Experiment: co-immunoprecipitation with anti-SNAP-25 antibody from iN extracts, quantitative immunoblot

binding: binds
B1: endogenous CSPα of WT induced neurons (iNs) from an unaffected individual (protein, human, UniProt Q9H3Z4 1-198, looked up)
chain: MADQRQRSLSTSGESLYHVLGLDKNATSDDIKKSYRKLALKYHPDKNPDNPEAADKFKEINNAHAILTDATKRNIYDKYGSLGLYVAEQFGEENVNTYFVLSSWWAKALFVFCGLLTCCYCCCCLCCCFNCCCGKCKPKAPEGEETEFYVSPEDLEAQLQSDEREATDTPIVIQPASATETTQLTADSHPSYHTDGFN
modifications: Cys-string palmitoylated
